Measured values as given in PubChem BioAssay AID602313 (National Center for Advancing Translational Sciences (NCATS), 2012).
In all, about 390,000 compounds went through this assay and about 760 (0.19%) were called active. The inconclusive results got no clear call from the source; some entries with a clear call stand among them for comparison. Calls follow the shape of the dose curve; as a rule, active = well fitted inhibition curve with a large enough effect; inconclusive = small, poorly fitted or top-dose-only effect; inactive = flat fitted curve, though single readings scatter. Where the call is inconclusive, the potency comes from a doubtful curve fit.

assay: qHTS for Inhibitors of Vif-A3F Interactions: qHTS; settings: HeLa A3F-eYFP + Vif (tagged APOBEC3F with the HIV-1 protein that degrades it), YFP fluorescence increase; series mostly up to 46.1 µM; also: nearly all actives have a fitted effect of over 65% in size
In short: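 HeLa cells stably expressing A3F-eYFP plus Vif, plated and incubated overnight at 37 deg C, then exposed to compounds overnight at 37 deg C. Blocked degradation read as raised yellow fluorescence (Ex 488/Em 500-530).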
Potency is read from the fitted curve at half-maximal effect.

| SMILES | Potency |
| --- | --- |
| Cc1ccc(/C=C2\SC(N3CCCCC3)=NC2=O)cc1 | inactive |
| CCOC(=O)C1=C(C)NC(=O)NC1C1CC=CCC1 (centres undefined) | inconclusive: 17.8 µM [inhibitor, single point] |
| CCC(C)(C)n1nnnc1C(c1ccccc1OC)N1CCN(C(=O)c2ccco2)CC1 (centres undefined) | inconclusive: 3.55 µM [inhibitor, single point] |
| N#Cc1cc2ccncc2c2ccccc12 | inactive |
| CC1=C(C)CS(=O)N(S(=O)(=O)c2ccccc2)C1 (centres undefined) | inconclusive: 20 µM [inhibitor, partial curve, poor fit] |
| COc1ccc(C)cc1NC(=O)Cn1c(=O)n(Cc2nc(C)no2)c(=O)c2ccccc21 | inactive |
| CN(C)C(/C=C/Nc1ccc([N+](=O)[O-])cc1)=C(C#N)C#N | inconclusive: 35.5 µM [inhibitor, single point] |
| Clc1cccc(N/N=C(\Cc2nc3ccccc3[nH]2)c2ccccc2)c1 | inactive |
| CC1=CC(C)(C)N(C(=O)CSc2nnc(C)s2)c2ccc(C)cc21 | inactive |
| CCOc1cc(Br)cc(/C=N/NC(=O)c2cccnc2)c1O | inconclusive: 3.55 µM [inhibitor, full curve, poor fit] |
| O=C(C1CCN(S(=O)(=O)c2cccc3nsnc23)CC1)N1CCc2ccccc2C1 | inactive |
| CCOc1cc(/C=C2\C(=N)N3N=C(S(=O)(=O)CC)SC3=NC2=O)ccc1OC(=O)c1ccco1 | inconclusive: 11.2 µM [inhibitor, partial curve, poor fit] |
| CS(=O)(=O)Nc1ccc(C2=NN(S(C)(=O)=O)C(c3ccc4nccnc4c3)C2)cc1 (centres undefined) | active: 22.4 µM |
| COc1ccc(CNC(=O)CSc2ncc3c(n2)-c2ccc(Cl)cc2N(Cc2ccc(F)cc2)S3(=O)=O)cc1OC | inconclusive: 5.01 µM [inhibitor, single point] |
| O=C1NC[C@H](Cc2ccccc2)N(C[C@H]2CCCN2C[C@H](Cc2ccccc2)N2C[C@H](Cc3ccccc3)N(CC3CCCCCC3)C(=O)C2=O)C1=O | inconclusive: 22.4 µM [inhibitor, single point] |
| Cc1ccc(/C=N/NC(=O)c2nc3nc(C)cc(C)n3n2)cc1 | inconclusive: 12.6 µM [inhibitor, partial curve] |
| COc1ccc(C)cc1Nc1n[n+](-c2ccccc2)c(-c2ccc(N(C)C)cc2)s1 | inconclusive: 35.5 µM [inhibitor, single point] |
| COc1cc(OC)c(-c2cc(C(=O)NCc3ccc(F)cc3)c3c(-c4ccccc4)[nH]nc3n2)cc1OC | inconclusive: 25.1 µM [inhibitor, single point] |
| Cc1ccc(C23CC4CC(CC(C(=O)N5CCN(C)CC5)(C4)C2)C3)cc1 | inconclusive: 28.2 µM [inhibitor, single point] |
| C=CCn1c(N)c(C(=O)NCc2ccco2)sc1=S | inactive |
| O=C(Nc1cccc(Cl)c1)c1ccccc1 | inactive |
| O=C(NCC(=O)N1CCN(C(=O)c2ccco2)CC1)c1ccc(Br)cc1 | inactive |
| O=C(NC(=S)N1CCCCC1CO)c1cccs1 (centres undefined) | inconclusive: 10 µM [inhibitor, partial curve, poor fit] |

| SMILES | Potency |
| --- | --- |
| O=C(CSc1n[nH]c(=O)[nH]c1=O)Nc1ccc2c(c1)C(=O)c1ccccc1C2=O | inactive |
| CSC(=S)N/N=C/c1ccccc1 | inconclusive: 0.562 µM [inhibitor, partial curve, poor fit] |
| CCOc1ccc(-n2c(SCC(=O)Nc3cc(C)on3)nc3c(c2=O)SCC3)cc1 | inactive |
| COc1ccc(-n2c(C)cc(/C=C3\SC(=S)NC3=O)c2C)cc1 | active: 10 µM |
| CCCOC(=O)/C(=C\c1ccc([N+](=O)[O-])o1)NC(=O)c1ccccc1 | active: 7.08 µM |
| COc1ccc(CNc2ncccn2)cc1OC | inconclusive: 6.31 µM [inhibitor, single point] |
| COc1ccc(Cl)cc1NC(=O)c1cc(-c2ccccc2O)n[nH]1 | inconclusive: 15.8 µM [inhibitor, single point] |
| CN1CCc2c(sc(/N=C/c3cc(C(C)(C)C)ccc3O)c2C#N)C1 | inconclusive: 5.62 µM [inhibitor, full curve, poor fit] |
| CCOc1ccccc1CN1CCN(Cc2[nH]c3ccccc3c2C)CC1CCO (centres undefined) | inactive |
| CC(C)Cn1c(SCC(=O)Nc2cccnc2Cl)nnc1-c1ccco1 | inconclusive: 35.5 µM [inhibitor, single point] |
| Cc1ccc(-n2nc3c(SCCN4CCOCC4)nnc(C)c3c2C)cc1 | active: 25.1 µM |
| O=C1c2ccccc2NC(c2ccc(-c3ccc(F)cc3)o2)N1O (centres undefined) | inconclusive: 20 µM [inhibitor, single point] |
| COc1ccc2oc(C(=O)Nc3ccc(C)cn3)c(C)c2c1 | inconclusive: 3.16 µM [inhibitor, single point] |
| Cn1c(C(=O)Nc2ccc(Cl)cc2)cc2cc(Cl)ccc21 | inactive |
| C[C@@H]1CC=C[C@H]2[C@H]1C(=O)N(Cc1ccccc1)[C@H]2c1ccc2ccccc2c1 | inconclusive: 35.5 µM [inhibitor, single point] |
| CCN(CC)c1ccc(S(=O)(=O)N2CCOCC2)cc1NC(=O)CSc1nnc(N)s1 | inconclusive: 11.2 µM [inhibitor, partial curve, poor fit] |
| Cc1occc1C(=O)N/N=C/C=C/c1ccc(N(C)C)cc1 | inconclusive: 35.5 µM [inhibitor, single point] |
| COCCN=c1scc(-c2ccco2)n1/N=C/c1ccc(O)c(O)c1O | inconclusive: 15.8 µM [inhibitor, single point] |
| CCCOc1ccc(N/C=C/C(=O)c2ccc(OC)c(OC)c2)cc1 | inactive |
| O=c1c2ccccc2sn1-c1ccccc1F | inconclusive: 6.31 µM [inhibitor, single point] |
| O=C(CN1C(=O)/C(=C\c2ccc(F)cc2)Oc2ccccc21)N1CCN(c2ccccn2)CC1 | inconclusive: 6.31 µM [inhibitor, single point] |
| CCOC(=O)C1(CC2CCCCO2)CCN(Cc2nccn2-c2ccc(OC)cc2)CC1 (centres undefined) | inconclusive: 35.5 µM [inhibitor, single point] |
| Cc1oc(C)c2c(=O)ccc3c(c12)OC(N)=C(C#N)C3c1ccccc1Cl (centres undefined) | inconclusive: 2.82 µM [inhibitor, partial curve, poor fit] |

| SMILES | Potency |
| --- | --- |
| CCOC(=O)/C=C1/SCC(=O)N1CC(=O)Nc1ccccc1OC(F)F | inconclusive: 22.4 µM [inhibitor, partial curve, poor fit] |
| Cc1ccc(NC(=S)NC(=O)C2CC2)c(C)c1 | inconclusive: 28.2 µM [inhibitor, single point] |
| Cc1cc(C)nc(NC(=NCc2ccc3c(c2)OCO3)NC(=O)Nc2ccccc2)n1 | inactive |
| C=CCOCCN1C(=O)C2C(c3ccccc3)C=CC(c3ccccc3)C2C1=O (centres undefined) | inactive |
| COCc1cc(C)nc2sc(C(=O)Nc3ccc(C(=O)OC)cc3)c(N)c12 | inconclusive: 20 µM [inhibitor, partial curve, poor fit] |
| O=C(/C=C/c1ccc2c(c1)OCO2)Nc1nc2ccccc2s1 | inconclusive: 15.8 µM [inhibitor, single point] |
| Cc1cccc(NC(=O)CSc2cccc3cccnc23)c1 | inconclusive: 35.5 µM [inhibitor, single point] |
| CN(C)CC(O)COC(c1ccccc1)c1ccccc1 (centres undefined) | inconclusive: 3.16 µM [inhibitor, single point] |
| Cc1cc(C)cc(NC(=O)NCCn2nnc3cc(S(=O)(=O)N(C)C)ccc32)c1 | inactive |
| Cc1nnc(N/N=C/c2c(Cl)cccc2Cl)n1N | inconclusive: 22.4 µM [inhibitor, single point] |
| CCOc1ccc(CCNS(=O)(=O)c2ccc(-c3ccc(=O)[nH]n3)o2)cc1OCC | inactive |
| C=CCNC(=O)C(C#N)c1nc2ccccc2nc1N1CCN(Cc2ccccc2)CC1 (centres undefined) | inconclusive: 8.91 µM [inhibitor, partial curve] |
| CCOC(=O)c1ccccc1NC(=O)CN(c1ccccc1OC)S(=O)(=O)c1ccc(C)cc1 | inactive |
| Cc1ccc(N2C(=O)c3cccc4c([N+](=O)[O-])ccc(c34)C2=O)c2cccnc12 | inconclusive: 2.51 µM [inhibitor, partial curve, poor fit] |
| CCOC(=O)N1CCc2c(sc3c2c(=O)n(-c2ccc(Cl)cc2)c(=O)n3CC(=O)c2ccc(F)cc2)C1 | inconclusive: 31.6 µM [inhibitor, single point] |
| COc1ccc(OC)c(CCNC(=O)CCc2nnc3ccc(N4CCOCC4)nn23)c1 | inactive |
| N/C(=N/OC(=O)c1ccccc1F)c1nonc1N | inactive |
| COc1cccc(/C=N/NC(=S)Nc2cccc(S(=O)(=O)N(C)C)c2)c1 | inconclusive: 3.98 µM [inhibitor, single point] |
| CC(NC(=O)CCC(=O)c1ccccc1)c1ccc(F)cc1 (centres undefined) | inconclusive: 7.08 µM [inhibitor, partial curve, poor fit] |
| CC(=O)Nc1ccc(C=NN=C2c3ccccc3-c3ccccc32)cc1 | inconclusive: 10 µM [inhibitor, partial curve, poor fit] |
| O=C(Nc1c(C(=O)N2CCOCC2)cnn1-c1ccccc1)c1ccccc1F | inconclusive: 3.16 µM [inhibitor, single point] |
| O=C(Cn1c(=S)[nH]c2ccccc2c1=O)N1CCc2ccccc2C1 | inconclusive: 35.5 µM [inhibitor, single point] |
| O=C(CSCCc1ccccn1)Nc1ccccn1 | inconclusive: 2.82 µM [inhibitor, partial curve, poor fit] |

Looked up one by one from above (5):

| SMILES | Potency |
| --- | --- |
| Cc1nnc(N/N=C/c2c(Cl)cccc2Cl)n1N | inconclusive: 22.4 µM [inhibitor, single point] |
| CCOc1ccc(CCNS(=O)(=O)c2ccc(-c3ccc(=O)[nH]n3)o2)cc1OCC | inactive |
| COCc1cc(C)nc2sc(C(=O)Nc3ccc(C(=O)OC)cc3)c(N)c12 | inconclusive: 20 µM [inhibitor, partial curve, poor fit] |
| O=C(Cn1c(=S)[nH]c2ccccc2c1=O)N1CCc2ccccc2C1 | inconclusive: 35.5 µM [inhibitor, single point] |
| O=C(/C=C/c1ccc2c(c1)OCO2)Nc1nc2ccccc2s1 | inconclusive: 15.8 µM [inhibitor, single point] |
